# Assay results: patent publication US20130045933A1, “ALOE-EMODIN DERIVATIVES AND USE THEREOF FOR THE TREATMENT OF CANCER” (RAMOT AT TEL-AVIV UNIVERSITY LTD., priority 2010, published 2013)
# At least one compound was matched to its structure with a doubt left.
# How the values were obtained:
# [1] = test system: supercoiled plasmid PBR322; experiment: Supercoiled plasmid DNA unwinding gel experiment (DNA intercalation); type: binding; settings: 200 μM
# Procedure: Eppendorf tubes containing 3 μL supercoiled plasmid PBR322 (0.167 μg/ml), 14 μL tris-HCl-di-natrium-EDTA (TE X1) and 5 μL, AE, or one of the AEGs 1-4 or doxorubicin, at different concentrations were incubated for 15 min at 37° C. The samples were then added with 2 μl of loading buffer, and loaded on a 1% agarose gel in tris-HCl-boric-acid-di-natrium-EDTA (TBE X1). Samples were on the gel run for 15 min at 50 V and an additional 225 min at 70V. The gels were then immersed in a 0.5 mg/ml solution of ethidium bromide shaken for 20 min., washed with DDW for […]. DNA was visualized by UV illumination.
# The DNA intercalation property of AEGs 13-16 was studied by applying the robust supercoiled plasmid DNA unwinding gel experiments protocol.^[23,37,38] Briefly, samples containing one of the AEGs 13-16, DOX or AE were pre-incubated with PBR322DNA plasmid, loaded on a 1% agarose gel, run for 4 hours at 70 volts and stained with ethidium bromide. […] At 200 μM.
# [2] = test system: MCF-7 cells; experiment: Light microscopy study of treated cells; type: cell-based; settings: MCF-7, 20 μM, 24 hours, x400
# Procedure: FIG. 9: Light microscopy (x400) pictures of MCF-7 cells: Cell cultures were incubated for 24 hours. (a) Untreated control cells (b) AE 20 μM (c), Dox 20 μM, (d) AEG 13 20 μM.
# Cells micrographs were obtained using a light microscope (Olympus IX50-S8F2 inverted phase microscope) at x400 magnification.
smiles,measurement,setting,value
"O=C1c2cccc(O)c2C(=O)c2c(O)cc(CO)cc21 [AE, Aloe-emodin]",DNA shift effect,[1],no observable DNA shift effect
same,cell numbers and cell morphology by light microscopy,[2],not affected in shape or numbers
